Data from article PMC2267038.

Target: T1, Type II hexokinase (human (endogenous in HeLa)) (UniProt P52789)
T1 sequence: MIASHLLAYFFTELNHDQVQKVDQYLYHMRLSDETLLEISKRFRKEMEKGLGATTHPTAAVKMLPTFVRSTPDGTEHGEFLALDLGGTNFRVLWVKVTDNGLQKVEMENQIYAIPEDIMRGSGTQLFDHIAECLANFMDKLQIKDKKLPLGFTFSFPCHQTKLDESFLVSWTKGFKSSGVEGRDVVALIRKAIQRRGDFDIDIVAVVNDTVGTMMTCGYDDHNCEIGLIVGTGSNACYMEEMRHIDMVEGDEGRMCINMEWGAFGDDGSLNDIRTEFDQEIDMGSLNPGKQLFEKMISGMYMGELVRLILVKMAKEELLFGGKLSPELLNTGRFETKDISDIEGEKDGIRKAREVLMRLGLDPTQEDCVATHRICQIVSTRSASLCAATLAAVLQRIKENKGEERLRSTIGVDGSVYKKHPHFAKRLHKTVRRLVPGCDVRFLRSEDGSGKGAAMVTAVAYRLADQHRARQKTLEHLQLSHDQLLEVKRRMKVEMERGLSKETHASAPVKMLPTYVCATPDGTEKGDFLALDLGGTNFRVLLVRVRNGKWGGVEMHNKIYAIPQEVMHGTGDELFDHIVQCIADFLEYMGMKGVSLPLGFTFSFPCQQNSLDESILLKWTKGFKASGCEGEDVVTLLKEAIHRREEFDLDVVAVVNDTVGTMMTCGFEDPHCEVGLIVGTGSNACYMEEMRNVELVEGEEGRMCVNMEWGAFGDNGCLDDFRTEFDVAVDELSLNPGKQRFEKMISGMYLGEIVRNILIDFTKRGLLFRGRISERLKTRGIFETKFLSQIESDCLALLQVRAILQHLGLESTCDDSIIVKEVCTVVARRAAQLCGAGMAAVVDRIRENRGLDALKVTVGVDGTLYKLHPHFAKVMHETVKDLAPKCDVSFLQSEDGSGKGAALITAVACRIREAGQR
Assay: co-IP; HK II immunoprecipitated from HeLa cells kept in control conditions, VDAC detected by blot; 1000-1500 µg of proteins per reaction, antibodies on protein A- or protein G-Sepharose, 4°C overnight

binding: binds
Substance: voltage-dependent anion channel (human (endogenous in HeLa))

Results are given in words; binding and its absence hold for the method and conditions named. Binding seen in cells or lysates may run through a third protein. Binding calls can cover weak binding; strength is not graded here.
